The values below come from PubChem BioAssay AID248 (DTP/NCI, 2004).

The subject of this assay is L1210 leukemia ip in BDF1 mice, survival T/C. Kind of assay: NCI In Vivo Anticancer Drug Screen. Data for tumor model L1210 Leukemia (intraperitoneal) in B6D2F1 (BDF1) mice. Conditions: higher T/C = longer survival.
Where [1] appears, read: T/C endpoint: mean survival time, dose: 400.0 mg/kg/injection, schedule: Q04DX003 (ip), vehicle: Klucel (hydroxypropylcellulose) (HPC).
[2] abbreviates: T/C endpoint: mean survival time, dose: 400.0 mg/kg/injection, schedule: Q01DX001 (ip), vehicle: saline.
[3] abbreviates: T/C endpoint: mean survival time, dose: 100.0 mg/kg/injection, schedule: Q04DX003 (ip), vehicle: Klucel (hydroxypropylcellulose) (HPC).
Where [4] appears, read: T/C endpoint: mean survival time, dose: 200.0 mg/kg/injection, schedule: Q04DX003 (ip), vehicle: Klucel (hydroxypropylcellulose) (HPC).
Setting [5] is: T/C endpoint: mean survival time, dose: 200.0 mg/kg/injection, schedule: Q01DX009 (ip), vehicle: saline.
Setting [6] is: T/C endpoint: mean survival time, dose: 400.0 mg/kg/injection, schedule: Q01DX009 (ip), vehicle: saline.
The mark [7] stands for this setting: T/C endpoint: mean survival time, dose: 400.0 mg/kg/injection, schedule: Q04DX003 (ip), vehicle: saline.
Setting [8] is: T/C endpoint: mean survival time, dose: 200.0 mg/kg/injection, schedule: Q04DX003 (ip), vehicle: saline with Tween-80.
[9] abbreviates: T/C endpoint: mean survival time, dose: 400.0 mg/kg/injection, schedule: Q04DX003 (ip), vehicle: saline with Tween-80.
Setting [10] is: T/C endpoint: mean survival time, dose: 300.0 mg/kg/injection, schedule: Q01DX001 (ip), vehicle: saline.
The mark [11] stands for this setting: T/C endpoint: mean survival time, dose: 100.0 mg/kg/injection, schedule: Q01DX009 (ip), vehicle: saline with Tween-80.

The list is a part of this screen's results and no random one: it gathers tests that were run many times, whatever their T/C, doses with no T/C, and many T/C values between a quarter and a half above the control. Other doses and runs of a compound stand elsewhere. T/C is the treated group as % of the vehicle group. Some doses have a count of surviving animals in place of a T/C: the source files T/C as zero there, which appears to mark a toxic dose or a test without result, not a measured value. Some survivor counts are full or nearly so, which does not show that the dose was tolerated: survival well below the control is almost never listed, so the zero probably covers shortened survival too. Survivors were counted at the toxicity check, usually on the fifth day, unless a day is given; later deaths do not show. Schedule codes are those of the source, read here as Q, the interval in days (D) or hours (H), X, the number of doses. Some structures stand for samples that the source files as different forms (salt, stereo form or complex); doses refer to the form tested. Some doses were run more than once; the values are given in rising order. For survival time, this PubChem deposit counts one and a half times the control or more as active, and values a quarter to a half above the control carry no call in these data; other NCI protocols may use other cut-offs. Some T/C values carry the count of animals alive at the toxicity check (mostly the fifth day); where none is given, no animal had died by that day.

Consider `CCCCCCC(=O)O[C@H]1CC[C@H]2[C@@H]3CCC4=CC(=O)CC[C@]4(C)[C@H]3CC[C@]12C`, for which the survivor count is, setting by setting: (T/C endpoint: median survival time, dose: 64.0 mg/kg/injection, schedule: Q04DX024 (ip), vehicle: other) 6 of 10; (T/C endpoint: median survival time, dose: 128.0 mg/kg/injection, schedule: Q01DX008 (ip), vehicle: other) 5 of 10; (T/C endpoint: median survival time, dose: 128.0 mg/kg/injection, schedule: Q01DX016 (ip), vehicle: other) 6 of 10; (T/C endpoint: median survival time, dose: 256.0 mg/kg/injection, schedule: Q01DX008 (ip), vehicle: other) 5 of 10; (T/C endpoint: median survival time, dose: 512.0 mg/kg/injection, schedule: Q04DX003 (ip), vehicle: other) 6 of 10; (T/C endpoint: median survival time, dose: 1024.0 mg/kg/injection, schedule: Q01DX001 (ip), vehicle: other) 0 of 10. The survivor count reads like this: (T/C endpoint: median survival time, dose: 1024.0 mg/kg/injection, schedule: Q08DX002 (ip), vehicle: other) 0 of 10; (T/C endpoint: median survival time, dose: 2048.0 mg/kg/injection, schedule: Q01DX001 (ip), vehicle: other) 0 of 10.

With `CC(=O)CC(=O)Oc1ccccc1OC(C)=O`, the survivor count under setting [1] is 1 of 6.

As for `CC1CN1P(=O)(Oc1cccc2ccccc12)N1CC1C` (stereo unspecified), under setting [2], the T/C is 125 % of control [3 of 4 alive].

Regarding `C[N+](C)(C)C1(Cc2ccc(Cl)cc2)c2ccccc2-c2ccccc21`, the survivor count is 1 of 6 under setting [3], 0 of 6 under setting [4] and 0 of 6 under setting [1].

As for `CCN(CC)CCOC(=O)c1ccc(N)cc1`, the survivor count under setting [5] is 0 of 6 and 2 of 6; the survivor count (T/C endpoint: mean survival time, dose: 200.0 mg/kg/injection, schedule: Q04DX003 (ip), vehicle: saline) is listed as 2 of 4; the survivor count under setting [6] is 0 of 6; the survivor count under setting [7] is given as 0 of 4.

With `Brc1ccc2[nH]cc(/C=N/Nc3nnc(N/N=C/c4c[nH]c5ccc(Br)cc45)c4ccccc34)c2c1`, the survivor count is, setting by setting: (T/C endpoint: mean survival time, dose: 100.0 mg/kg/injection, schedule: Q01DX001 (ip), vehicle: saline) 2 of 4; (T/C endpoint: mean survival time, dose: 200.0 mg/kg/injection, schedule: Q01DX001 (ip), vehicle: saline) 0 of 4; under setting [2], 0 of 4.

As for `CCC(/C=C/C(C)C1CCC2C3CC=C4CC(O)CCC4(C)C3CCC12C)C(C)C` (stereo unspecified) (tested in a mixture with another compound), the survivor count is 6 of 6 (T/C endpoint: mean survival time, dose: 100.0 mg/kg/injection, schedule: Q01DX001 (ip), vehicle: water); 6 of 6 under setting [8]; 0 of 6 and 3 of 6 (T/C endpoint: mean survival time, dose: 400.0 mg/kg/injection, schedule: Q01DX001 (ip), vehicle: water); 2 of 6 under setting [9].

For `Cc1cc(C(C)C)cc(C(C)C)c1`, the survivor count (T/C endpoint: mean survival time, dose: 400.0 mg/kg/injection, schedule: Q01DX009 (ip), vehicle: Klucel (hydroxypropylcellulose) (HPC)) is 6 of 6.

`O=S(c1ccccc1)c1c(Cl)c(Cl)nc(Cl)c1Cl` (stereo unspecified): the survivor count (T/C endpoint: mean survival time, dose: 50.0 mg/kg/injection, schedule: Q01DX009 (ip), vehicle: Klucel (hydroxypropylcellulose) (HPC)) is on record as 0 of 6; the survivor count (T/C endpoint: mean survival time, dose: 100.0 mg/kg/injection, schedule: Q01DX009 (ip), vehicle: Klucel (hydroxypropylcellulose) (HPC)) is given as 0 of 6; the survivor count (T/C endpoint: mean survival time, dose: 200.0 mg/kg/injection, schedule: Q01DX009 (ip), vehicle: Klucel (hydroxypropylcellulose) (HPC)) is 0 of 6; the survivor count under setting [1] is 0 of 6.

Regarding `NC(=O)C(O)(C(F)(F)F)C(F)(F)F`, the survivor count is, setting by setting: (T/C endpoint: mean survival time, dose: 20.0 mg/kg/injection, schedule: Q04DX003 (ip), vehicle: saline) 6 of 6; (T/C endpoint: mean survival time, dose: 40.0 mg/kg/injection, schedule: Q01DX001 (ip), vehicle: saline) 0 of 6; (T/C endpoint: mean survival time, dose: 75.0 mg/kg/injection, schedule: Q01DX001 (ip), vehicle: saline) 0 of 6; (T/C endpoint: mean survival time, dose: 150.0 mg/kg/injection, schedule: Q01DX001 (ip), vehicle: saline) 0 of 6; under setting [10], 0 of 6.

Consider `Nc1ccn(CC(=O)c2ccco2)c(=O)n1`, for which the survivor count reads like this: under setting [5], 2 of 6; under setting [6], 0 of 6; under setting [7], 3 of 6.

Take `CC1(C)N=C(N)N=C(N)N1c1ccc(OCCOc2ccc(NC(=O)CBr)cc2)cc1`: the T/C was 138 % of control [5 of 6 alive] (T/C endpoint: mean survival time, dose: 176.0 mg/kg/injection, schedule: Q01DX009 (ip), vehicle: saline) and 132 % of control (T/C endpoint: mean survival time, dose: 266.0 mg/kg/injection, schedule: Q01DX009 (ip), vehicle: saline). Also, the survivor count by setting is: (T/C endpoint: mean survival time, dose: 264.0 mg/kg/injection, schedule: Q01DX009 (ip), vehicle: other) 1 of 6; (T/C endpoint: mean survival time, dose: 400.0 mg/kg/injection, schedule: Q01DX009 (ip), vehicle: other) 0 of 6; under setting [6], 4 of 6; (T/C endpoint: mean survival time, dose: 600.0 mg/kg/injection, schedule: Q01DX009 (ip), vehicle: other) 0 of 6; (T/C endpoint: mean survival time, dose: 600.0 mg/kg/injection, schedule: Q01DX009 (ip), vehicle: saline) 1 of 6.

Consider `c1ccc(C(c2ccccc2)c2ccc(C(c3ccccc3)(c3ccccc3)c3ccccc3)cc2)cc1`, for which the survivor count (T/C endpoint: mean survival time, dose: 175.0 mg/kg/injection, schedule: Q04DX003 (ip), vehicle: Klucel (hydroxypropylcellulose) (HPC)) is 6 of 6 and the survivor count (T/C endpoint: mean survival time, dose: 350.0 mg/kg/injection, schedule: Q04DX003 (ip), vehicle: Klucel (hydroxypropylcellulose) (HPC)) is 6 of 6.

As to `CC(C)c1ccc(/C=C\C(=O)c2ccc(-c3ccccc3)cc2)cc1`, the T/C (T/C endpoint: mean survival time, dose: 400.0 mg/kg/injection, schedule: Q01DX009 (ip), vehicle: saline with Tween-80) is 138 % of control [2 of 3 alive].

Take `CCN(CC)CCCNC(c1ccc(OC)cc1)C(Cl)(Cl)Cl` (stereo unspecified): the survivor count under setting [10] is recorded as 0 of 6.

As to `COc1cc(C(=O)N(CCCl)N=O)cc(OC)c1OC`, the survivor count was 6 of 6 (T/C endpoint: mean survival time, dose: 12.5 mg/kg/injection, schedule: Q01DX009 (ip), vehicle: saline with Tween-80); 6 of 6 (T/C endpoint: mean survival time, dose: 25.0 mg/kg/injection, schedule: Q01DX009 (ip), vehicle: saline with Tween-80); 4 of 6 (T/C endpoint: mean survival time, dose: 50.0 mg/kg/injection, schedule: Q01DX009 (ip), vehicle: saline with Tween-80); 0 of 6 under setting [11]; 0 of 6 under setting [8]; 0 of 6 under setting [9].

In the case of `c1ccc([C@H]2O[C@@H]2c2ccccc2)cc1`, the survivor count is 2 of 6 (T/C endpoint: mean survival time, dose: 100.0 mg/kg/injection, schedule: Q04DX003 (ip), vehicle: saline with Tween-80); 0 of 6 under setting [8]; 0 of 6 under setting [9].

As for `c1ccc(CC23CCCCC2N3)cc1` (stereo unspecified), the survivor count was 3 of 6 under setting [11] and 1 of 6 (T/C endpoint: mean survival time, dose: 200.0 mg/kg/injection, schedule: Q01DX009 (ip), vehicle: saline with Tween-80).

For `C#CC[As+](c1ccccc1)(c1ccccc1)c1ccccc1`, the survivor count runs as follows: (T/C endpoint: mean survival time, dose: 12.5 mg/kg/injection, schedule: Q01DX009 (ip), vehicle: Klucel (hydroxypropylcellulose) (HPC)) 6 of 6; (T/C endpoint: mean survival time, dose: 25.0 mg/kg/injection, schedule: Q01DX009 (ip), vehicle: Klucel (hydroxypropylcellulose) (HPC)) 5 of 6; (T/C endpoint: mean survival time, dose: 25.0 mg/kg/injection, schedule: Q04DX003 (ip), vehicle: Klucel (hydroxypropylcellulose) (HPC)) 6 of 6; (T/C endpoint: mean survival time, dose: 50.0 mg/kg/injection, schedule: Q04DX003 (ip), vehicle: Klucel (hydroxypropylcellulose) (HPC)) 0 of 6; under setting [3], 0 of 6; under setting [4], 0 of 6. Further, the survivor count under setting [1] is on record as 0 of 6.
